Marks after values point to notes of the source that are not given here.

Data on 11 substances can be found in US8816050 (dated 2014).

Data set [1] in a line: Fmoc solid-phase peptide synthesis; H2N-Phe-2-ClTrt-resin; PyBOP/NMM. The conditions noted are these: whole synthesis, scale of the general procedure 100 μmol.
The nature of data set [2]: solid-phase peptide synthesis. Conditions: for isolated yield / isolated mass: whole synthesis; for step yield: coupling step.
Data set [3] is described as follows: Fmoc solid-phase peptide synthesis; Rink amide resin; PyBOP/NMM. The conditions noted are these: whole synthesis, scale of the general procedure 100 μmol.
The mark [4] stands for this setting: scale of the general procedure 100 μmol.

For the substance Glycopeptide Val^53-Phe^82, the isolated yield in data set [1] is reported as 18% yield.
For the substance Thioester Peptide Cys(Acm)^37-Gly^52, the isolated yield in data set [2] (setting [4]) was 43% yield.
Turning to texSAL Gly-Gly, in data set [2], the step yield worked out at 60%.
pexSAL Gly-Gly showed a step yield in data set [2] of 49%.
Same read-out and setting: the result for qexSAL Gly-Gly reads 38%*.
Consider Ac-Leu-Tyr-Arg-Ala-Gly-S(CH2)2CONH2, for which, in data set [2] (scale 100 μmol), the isolated mass came to 50.6 mg and the isolated yield is 72%.
For the substance Glycopeptide Thioester Asp^1-Asn^36, the isolated yield in data set [3] worked out at 9% yield.
As for Ac-Leu-Tyr-Arg-Ala-Ala-S(CH2)2CONH2, in data set [2] (scale 100 μmol), the isolated mass is given as 39 mg and the isolated yield turned out to be 54%.
In data set [2] (scale 100 μmol), Ac-Leu-Tyr-Arg-Ala-His-S(CH2)2CONH2 came in with an isolated mass of 31 mg. The isolated yield in data set [2] (setting [4]) turned out to be 39%.
For the substance dexSAL Gly-Gly, the step yield in data set [2] was 70%.
For exSAL Gly-Gly, in data set [2], the step yield turned out to be 86%.
